This test deals with 3 × FLAG-aPKC (atypical protein kinase C subtype iota, PKCι), wild type, full length (human) (UniProt P41743). The test can be described thus: SEC + other: glycerol gradient ultracentrifugation; molecular weight estimate from Stokes radius (SEC) and apparent sedimentation coefficient (glycerol gradient) by the Siegel-Monty/Erickson approximation; 20 mM HEPES pH 7.6, 400 mM NaCl; both purified.

No constants are given. Whether binding was seen depends on the method and setting. Tags and fused reporters may be left off the sequences shown.

B1: 3 × FLAG-aPKC (atypical protein kinase C subtype iota, PKCι), wild type, full length (enzyme, UniProt P41743 1-596)
chain: MPTQRDSSTMSHTVAGGGSGDHSHQVRVKAYYRGDIMITHFEPSISFEGLCNEVRDMCSFDNEQLFTMKWIDEEGDPCTVSSQLELEEAFRLYELNKDSELLIHVFPCVPERPGMPCPGEDKSIYRRGARRWRKLYCANGHTFQAKRFNRRAHCAICTDRIWGLGRQGYKCINCKLLVHKKCHKLVTIECGRHSLPQEPVMPMDQSSMHSDHAQTVIPYNPSSHESLDQVGEEKEAMNTRESGKASSSLGLQDFDLLRVIGRGSYAKVLLVRLKKTDRIYAMKVVKKELVNDDEDIDWVQTEKHVFEQASNHPFLVGLHSCFQTESRLFFVIEYVNGGDLMFHMQRQRKLPEEHARFYSAEISLALNYLHERGIIYRDLKLDNVLLDSEGHIKLTDYGMCKEGLRPGDTTSTFCGTPNYIAPEILRGEDYGFSVDWWALGVLMFEMMAGRSPFDIVGSSDNPDQNTEDYLFQVILEKQIRIPRSLSVKAASVLKSFLNKDPKERLGCHPQTGFADIQGHPFFRNVDWDMMEQKQVVPPFKPNISGEFGLDNFDSQFTNEPVQLTPDDDDIVRKIDQSEFEGFEYINPLLMSAEECV
As for B1, the binding result is “no binding”.

(Values after publication PMC9573856 (2022).)
